This assay addresses Vimentin (human (endogenous in hGF)) (UniProt P08670). As to the kind of experiment: affinity purification with mass spectrometry; vimentin immunoprecipitated from hGF lysates with vimentin antibody on Protein A Dynabeads; pre-immune serum beads subtracted; four replicated experiments.

Chains of the proteins cited; added tags and fusions are not shown.
UniProt P08670: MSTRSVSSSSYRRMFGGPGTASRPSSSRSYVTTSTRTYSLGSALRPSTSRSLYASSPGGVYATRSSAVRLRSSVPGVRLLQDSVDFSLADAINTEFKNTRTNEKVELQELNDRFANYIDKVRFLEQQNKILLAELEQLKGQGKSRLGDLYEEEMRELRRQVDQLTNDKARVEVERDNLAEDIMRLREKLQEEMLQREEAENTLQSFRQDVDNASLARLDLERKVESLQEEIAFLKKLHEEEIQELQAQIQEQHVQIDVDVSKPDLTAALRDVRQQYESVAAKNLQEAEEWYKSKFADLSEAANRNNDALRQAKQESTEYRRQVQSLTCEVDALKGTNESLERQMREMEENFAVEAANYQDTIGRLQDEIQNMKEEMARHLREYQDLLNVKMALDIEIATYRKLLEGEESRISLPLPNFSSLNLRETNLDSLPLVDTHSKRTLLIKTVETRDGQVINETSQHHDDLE
UniProt P26447: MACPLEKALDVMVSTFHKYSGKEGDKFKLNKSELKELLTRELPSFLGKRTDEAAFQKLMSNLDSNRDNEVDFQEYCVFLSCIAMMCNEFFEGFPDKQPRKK
UniProt P60903: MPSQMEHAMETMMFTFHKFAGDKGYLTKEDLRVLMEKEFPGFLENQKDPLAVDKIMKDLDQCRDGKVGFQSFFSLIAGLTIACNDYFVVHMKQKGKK
UniProt P23528: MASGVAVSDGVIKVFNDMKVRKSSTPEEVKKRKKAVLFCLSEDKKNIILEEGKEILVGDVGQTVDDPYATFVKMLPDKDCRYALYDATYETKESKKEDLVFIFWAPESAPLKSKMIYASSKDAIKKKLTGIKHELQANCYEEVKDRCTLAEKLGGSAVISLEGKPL
UniProt P15311: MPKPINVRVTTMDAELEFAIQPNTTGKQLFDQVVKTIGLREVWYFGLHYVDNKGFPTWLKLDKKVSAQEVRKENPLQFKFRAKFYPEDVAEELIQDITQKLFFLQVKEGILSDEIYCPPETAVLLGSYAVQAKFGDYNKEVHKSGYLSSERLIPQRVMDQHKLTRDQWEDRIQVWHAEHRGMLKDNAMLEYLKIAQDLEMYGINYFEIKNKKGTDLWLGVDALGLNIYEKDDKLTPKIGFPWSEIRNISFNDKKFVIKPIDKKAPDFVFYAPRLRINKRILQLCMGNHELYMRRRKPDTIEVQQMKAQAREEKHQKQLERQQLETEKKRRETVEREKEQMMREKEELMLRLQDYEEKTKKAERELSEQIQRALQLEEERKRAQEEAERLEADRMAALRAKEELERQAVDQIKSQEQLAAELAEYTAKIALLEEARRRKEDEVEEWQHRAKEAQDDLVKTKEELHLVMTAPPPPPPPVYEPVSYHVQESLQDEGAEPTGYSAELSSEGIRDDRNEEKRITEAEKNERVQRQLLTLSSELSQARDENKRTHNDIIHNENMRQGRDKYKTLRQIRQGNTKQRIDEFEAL
UniProt P07355: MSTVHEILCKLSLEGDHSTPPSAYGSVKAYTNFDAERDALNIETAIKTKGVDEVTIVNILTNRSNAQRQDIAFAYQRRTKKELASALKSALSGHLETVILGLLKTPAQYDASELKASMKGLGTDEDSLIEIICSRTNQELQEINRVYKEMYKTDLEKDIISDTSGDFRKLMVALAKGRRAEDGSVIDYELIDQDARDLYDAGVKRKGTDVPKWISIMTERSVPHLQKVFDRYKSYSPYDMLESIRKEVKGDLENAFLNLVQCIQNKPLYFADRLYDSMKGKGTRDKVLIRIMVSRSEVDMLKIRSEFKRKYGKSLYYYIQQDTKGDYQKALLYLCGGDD
UniProt P26038: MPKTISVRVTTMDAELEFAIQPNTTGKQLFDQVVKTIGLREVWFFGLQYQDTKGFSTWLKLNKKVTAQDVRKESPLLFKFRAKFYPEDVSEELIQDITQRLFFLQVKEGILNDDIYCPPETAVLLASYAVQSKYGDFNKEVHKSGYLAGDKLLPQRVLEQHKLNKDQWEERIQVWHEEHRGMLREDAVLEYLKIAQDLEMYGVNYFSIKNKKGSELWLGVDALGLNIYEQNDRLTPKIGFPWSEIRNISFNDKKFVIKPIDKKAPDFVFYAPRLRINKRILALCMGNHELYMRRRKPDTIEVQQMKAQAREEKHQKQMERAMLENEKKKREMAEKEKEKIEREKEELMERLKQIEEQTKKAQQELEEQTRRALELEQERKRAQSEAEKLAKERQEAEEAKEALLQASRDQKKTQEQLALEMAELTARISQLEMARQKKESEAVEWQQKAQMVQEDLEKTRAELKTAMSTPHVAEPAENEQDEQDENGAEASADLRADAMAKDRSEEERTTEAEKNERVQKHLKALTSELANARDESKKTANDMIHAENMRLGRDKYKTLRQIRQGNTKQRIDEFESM
UniProt P35579: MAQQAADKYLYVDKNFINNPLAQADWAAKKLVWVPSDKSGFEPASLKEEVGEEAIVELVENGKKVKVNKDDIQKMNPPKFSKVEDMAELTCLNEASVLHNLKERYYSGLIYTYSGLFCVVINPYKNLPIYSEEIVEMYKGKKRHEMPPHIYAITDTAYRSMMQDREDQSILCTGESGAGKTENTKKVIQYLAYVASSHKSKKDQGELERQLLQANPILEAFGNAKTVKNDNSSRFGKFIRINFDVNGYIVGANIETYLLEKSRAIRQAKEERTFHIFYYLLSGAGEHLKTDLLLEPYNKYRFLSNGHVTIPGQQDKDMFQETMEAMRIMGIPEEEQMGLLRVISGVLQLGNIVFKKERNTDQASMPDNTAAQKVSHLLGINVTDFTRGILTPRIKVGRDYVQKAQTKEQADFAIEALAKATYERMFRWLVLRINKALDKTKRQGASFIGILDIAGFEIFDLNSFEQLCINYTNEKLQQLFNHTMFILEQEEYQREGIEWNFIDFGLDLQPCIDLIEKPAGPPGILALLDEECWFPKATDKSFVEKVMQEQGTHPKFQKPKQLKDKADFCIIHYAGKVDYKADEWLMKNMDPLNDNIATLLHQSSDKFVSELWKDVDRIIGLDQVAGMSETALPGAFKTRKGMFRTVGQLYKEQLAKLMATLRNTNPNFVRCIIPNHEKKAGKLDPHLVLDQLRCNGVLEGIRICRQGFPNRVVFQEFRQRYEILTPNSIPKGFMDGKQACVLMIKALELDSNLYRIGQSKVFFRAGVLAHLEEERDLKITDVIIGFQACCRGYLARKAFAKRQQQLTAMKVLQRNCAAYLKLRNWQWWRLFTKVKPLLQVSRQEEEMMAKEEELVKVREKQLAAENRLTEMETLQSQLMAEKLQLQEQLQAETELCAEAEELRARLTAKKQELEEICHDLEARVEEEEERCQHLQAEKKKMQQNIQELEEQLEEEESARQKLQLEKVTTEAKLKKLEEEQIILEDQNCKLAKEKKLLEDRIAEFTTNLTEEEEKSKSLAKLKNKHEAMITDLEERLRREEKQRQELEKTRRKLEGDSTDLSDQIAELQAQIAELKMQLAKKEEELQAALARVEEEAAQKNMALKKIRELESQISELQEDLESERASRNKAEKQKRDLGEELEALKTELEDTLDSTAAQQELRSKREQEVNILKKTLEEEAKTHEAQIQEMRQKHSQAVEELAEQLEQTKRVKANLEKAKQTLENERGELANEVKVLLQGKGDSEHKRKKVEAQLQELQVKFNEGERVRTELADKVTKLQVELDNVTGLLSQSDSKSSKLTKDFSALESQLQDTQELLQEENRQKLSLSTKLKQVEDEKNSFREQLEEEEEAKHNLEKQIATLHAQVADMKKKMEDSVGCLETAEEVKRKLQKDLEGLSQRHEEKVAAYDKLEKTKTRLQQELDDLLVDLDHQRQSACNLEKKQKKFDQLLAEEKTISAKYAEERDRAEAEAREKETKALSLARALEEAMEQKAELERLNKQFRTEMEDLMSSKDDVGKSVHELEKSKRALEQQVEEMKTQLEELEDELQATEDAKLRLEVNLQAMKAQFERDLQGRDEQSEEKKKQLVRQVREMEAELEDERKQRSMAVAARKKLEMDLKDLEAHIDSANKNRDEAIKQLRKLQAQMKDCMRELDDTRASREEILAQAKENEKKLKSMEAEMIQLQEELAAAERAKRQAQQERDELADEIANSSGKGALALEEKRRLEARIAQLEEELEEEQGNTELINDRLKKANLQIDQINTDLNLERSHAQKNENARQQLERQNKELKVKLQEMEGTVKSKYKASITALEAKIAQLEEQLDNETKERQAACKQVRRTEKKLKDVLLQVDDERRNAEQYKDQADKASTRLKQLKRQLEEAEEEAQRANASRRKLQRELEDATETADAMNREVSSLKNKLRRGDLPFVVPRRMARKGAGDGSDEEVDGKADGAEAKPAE

These are yes or no findings as the source states them, for the method shown. Binding seen in cells or lysates may run through a third protein. A yes stands for co-enrichment or nearness to the bait. Other partners may have been found.

Consider 7 substances from article PMC12065020.

In the case of “Protein S100-A4 (from UniProt P26447 1-101)”, the binding entry is recorded as “binds”.

As to “Protein S100-A10 (from UniProt P60903 1-97)”, the binding entry is recorded as “binds”.

Turning to Cofilin-1 (from UniProt P23528 1-166), the binding entry is on record as “binds”.

Ezrin (from UniProt P15311 1-586): the binding entry is given as “binds”.

On to Annexin A2 (from UniProt P07355 1-339), for which the binding entry is listed as “binds”.

Turning to Moesin (from UniProt P26038 1-577), the binding result is on record as “binds”.

In the case of Myosin-9 (from UniProt P35579 1-1960), the binding entry is on record as “binds”.
